Test results as given in US20180360091A1, “NUTRITIONAL COMPOSITIONS AND INFANT FORMULAS TO PROMOTE MYELINATION IN THE BRAIN” (NESTEC S.A., priority 2015, published 2018).
For at least one compound, name, drawing or mass did not settle the structure.

Test system: children up to 5 years of age
Assay: Cross-sectional correlation (GLM) of formula nutrient composition with brain myelination
Assay type: in vivo, human
Settings: 5 most used formulas; voxel-wise correlations, p<0.05 corrected; inter-variable correlation threshold 0.9
Procedure: MRI brain scans of infants and children between 0 and 5 years were acquired using a white matter imaging technique. This technique provides a quantitative measure, the Myelin Water Fraction (MWF), which is a surrogate marker of myelin content. When mapped as a function of time across early childhood, myelination trajectories can be generated.
Infant formula composition: six infant formulas fed to infants participating in study were analyzed for their composition/level of myelin-relevant nutrients.
Each infant was scanned using the mcDESPOT (multicomponent Driven Equilibrium Single Pulse Observation of T1 and T2) white matter imaging technique Deoni et al. (Magn. Reson. Med. 2008, 60:1372-1387), which provides a quantitative measure of the myelin water fraction (MWF) at each imaging point throughout the brain. […]
Each child's map was then non-linearly aligned to a study specific template. […] Mean values for each region were then determined for each child and used for subsequent developmental analysis and trajectory modeling.
From the cohort described above, children up to 5 years of age that were fed different infant formulas during infancy were included in a large correlation analysis to examine the relationship between formula nutrient composition and brain myelination. The 5 most frequently used formulas in that cohort were analyzed for their nutritional composition. […]

## CC/C=C\C/C=C\C/C=C\C/C=C\C/C=C\C/C=C\CCC(=O)O [DHA, docosahexaenoic acid]
  Nutritional driver for myelination in the final general linear model: identified drivers
